PubChem BioAssay AID743454 | Peter MacCallum Cancer Centre – 2014
The deposit covers about 18,000 reagents; below is an unselected part. Of all reagents, 450 (2.5%) were called active. 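Single biological run; no consistent viability z cut-off exists, so the class columns, not z-scores, define the calls.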 No sequences are given here.

Assay: 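Genes whose loss kills vorinostat-resistant colon cancer cells under vorinostat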 (primary screen)
Cells: human HCT116-VR colon cancer cells, selected for vorinostat resistance
Knock-down reagent: siRNA pool against human genes, 40 nM siRNA pool
Time to read-out: vorinostat for 24 h, read-out about 72 h after transfection
Challenge: vorinostat at 2.5 µM final
Detection: 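Cell viability by CellTiter-Fluor and caspase 3/7 activity by luminescence, each scaled to mock wells per plate, duplicates averaged, then robust z-scored over all plates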
Reading the numbers: viability robust z-score: higher = more viable cells than screen typical; caspase robust z-score: higher = more caspase 3/7 activity than screen typical
Active means: 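Hits are knock-downs in viability class RV1/RV2 or caspase class CA1/CA2, excluding ones that killed cells in the no-drug cell-count arm; hits then retested with single siRNAs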

FBXO15 (F-box protein 15)
- viability hit class: no change
- caspase hit class: no change
- viability robust z-score: -0.38
- caspase robust z-score: 2.67
- call: inactive

GFAP (glial fibrillary acidic protein)
- viability hit class: no change
- caspase hit class: no change
- viability robust z-score: 0.3
- caspase robust z-score: -1.25
- call: inactive

MIXL1 (Mix paired-like homeobox)
- viability hit class: no change
- caspase hit class: no change
- viability robust z-score: -0.41
- caspase robust z-score: -0.4
- call: inactive

NR4A2 (nuclear receptor subfamily 4 group A member 2)
- viability hit class: no change
- caspase hit class: no change
- viability robust z-score: 0.18
- caspase robust z-score: 2
- call: inactive

RASGEF1B (RasGEF domain family member 1B)
- viability hit class: no change
- caspase hit class: no change
- viability robust z-score: 1.49
- caspase robust z-score: -0.18
- call: inactive

NAA25 (N-alpha-acetyltransferase 25, NatB auxiliary subunit)
- viability hit class: no change
- caspase hit class: no change
- viability robust z-score: -1.67
- caspase robust z-score: -0.6
- call: inactive

MS4A2 (membrane spanning 4-domains A2)
- viability hit class: no change
- caspase hit class: no change
- viability robust z-score: -1.09
- caspase robust z-score: 0.48
- call: inactive

MS4A14 (membrane spanning 4-domains A14)
- viability hit class: no change
- caspase hit class: no change
- viability robust z-score: -1.21
- caspase robust z-score: -0.1
- call: inactive

KANSL1L (KAT8 regulatory NSL complex subunit 1 like)
- viability hit class: no change
- caspase hit class: no change
- viability robust z-score: 0.07
- caspase robust z-score: -0.9
- call: inactive

CELF6 (CUGBP Elav-like family member 6)
- viability hit class: no change
- caspase hit class: no change
- viability robust z-score: -1.03
- caspase robust z-score: 0.48
- call: inactive

ZNF285 (zinc finger protein 285)
- viability hit class: no change
- caspase hit class: no change
- viability robust z-score: 1.13
- caspase robust z-score: 0.66
- call: inactive

CXCL3 (C-X-C motif chemokine ligand 3)
- viability hit class: no change
- caspase hit class: no change
- viability robust z-score: 0.8
- caspase robust z-score: 1.09
- call: inactive

SEMA3A (semaphorin 3A)
- viability hit class: no change
- caspase hit class: no change
- viability robust z-score: -0.74
- caspase robust z-score: 0.73
- call: inactive

CDK5R2 (cyclin dependent kinase 5 regulatory subunit 2)
- viability hit class: no change
- caspase hit class: no change
- viability robust z-score: -0.54
- caspase robust z-score: -0.97
- call: inactive

Quoted from the listing (2 entries):
MS4A14 (membrane spanning 4-domains A14)
- viability hit class: no change
- caspase hit class: no change
- viability robust z-score: -1.21
- caspase robust z-score: -0.1
- call: inactive

KANSL1L (KAT8 regulatory NSL complex subunit 1 like)
- viability hit class: no change
- caspase hit class: no change
- viability robust z-score: 0.07
- caspase robust z-score: -0.9
- call: inactive
